Measurements reported in article PMC6896172, “Successful Targeting of the Warburg Effect in Prostate Cancer by Glucose-Conjugated 1,4-Naphthoquinones” (Cancers, 2019).
This continues a long series; more values of the same kind are listed elsewhere.

Test system: 22Rv1 cells
Experiment: Global proteome analysis (LC-MS/MS, DIA) of differentially expressed proteins
Format: cell-based, human
Experimental: 22Rv1 cells were seeded in T75 culture bottles (4 × 10^6 cells/bottle in 20 mL/bottle), treated for 48 h with the 5 µM of compound 11 or vehicle (DMSO), harvested by scratching, washed twice with ice-cold PBS and flash-frozen. Cells were lysed and sonicated. The protein extracts were then heat-denaturated, reduced, alkylated and digested by trypsin. Peptides were chromatographically separated using full recovery autosampler vials and a nano-UPLC system (Acquity, Waters Corporation, Milford, MS, USA), coupled via electrospray ionization (ESI) to a tandem mass spectrometer equipped with a quadrupole and an orbitrap (QExactive, Thermo Fisher Scientific, Bremen, Germany), using MS/MS mode in data dependent acquisition (DDA) and data independent acquisition (DIA). The peptides, analyzed with DDA-LC-MS/MS, were identified with the search engine Sequest, integrated in the Proteome Discoverer software version 2.0 (Thermo Fischer Scientific) using the human Uniprot protein database (EMBL; Hinxton Cambridge, UK, release December 2018). […] For the details of sample preparation and proceeding, data acquisition and analysis see the Supplementary information. […]
serum (FBS, Invitrogen) and 1% penicillin/streptomycin (Invitrogen)). […]
Cell lines were lysed in 100 mM triethylammonium bicarbonate and 1% w/v sodium deoxycholate buffer followed by probe sonication to destroy polynucleotides and heat induce protein denaturing at 99 °C for 5 min. Protein concentrations were estimated with a bicinchonic acid (BCA) protein assay (Thermo Fisher Scientific, Bremen, Germany). 20 µg of protein were reduced in presence of 10 mM dithiotreithol (Sigma Aldrich) for 30 min at 60 °C followed by cysteine alkylation with 20 mM iodo acetamide (Sigma Aldrich) for 30 min at 37 °C in the dark and enzymatic degradation with sequencing grade trypsin (Promega) over night at 37 °C. Digestion was quenched with 1% formic acid (FA), precipitated sodium deoxycholate removed by centrifugation for 5 min at 14,000 g and the supernatant was dried in a vacuum centrifuge.
LC-MS/MS in Data Dependent and Data Independent Mode
Samples were resuspended in 0.1% FA and transferred into a full recovery autosampler vial (Waters). Chromatographic separation was achieved on a nano -UPLC system (Acquity, Waters Corporation, Milford, MS, USA) with a two-buffer-system (buffer A: 0.1% FA in water, buffer B:
0.1% FA in Acetonitrile (ACN), both at pH = 3). Attached to the UPLC was a reversed -phase peptide trapping column (Symmetry C18, 180 µm × 20 mm, 100 Å pore size, 5 µm particle size) for desalting, followed by a reversed-phase capillary separation of the tryptic peptides (BEH C18; 75 µm × 200 mm, 130 Å pore size, 1.7 µm particle size), using a 60 min gradient with increasing ACN concentration from 2–30% ACN. The eluting peptides were analyzed on a quadrupole-orbitrap mass spectrometer (QExactive, Thermo Fisher Scientific, Bremen, Germany) in data dependent acquisition (DDA) and data independent acquisition (DIA) for quantification.
In DDA mode, one replicate of each cell line was randomly chosen and 1 µg per sample was used per LC-MS/MS run to build a reference spectral library used for data extraction of samples acquired in DIA mode. For DDA, the 12 most intense ions per precursor scan (1 × 10 6 ions, 70,000 Resolution, 120 ms fill time) were analyzed by MS/MS (HCD at 25 normalized collision energy, 1 × 105 ions, 17,500 Resolution, 50 ms fill time) in a range of 400–1300 m/z. A dynamic precursor exclusion of 20 s was used. For DIA, 1 µg of each sample was analyzed using a 30 sequential 20 Da fixed window method covering the mass range from 400 –1000 m/z. Per cycle, 2 precursor scans (1 × […]
28 normalized collision energy, 1 × 106 ions, 17,500 Resolution, 50 ms fill time) were performed.
After the first precursor scan, 15 MS/MS scans were performed covering the precursor mass range from 400–700 m/z followed by the second precursor scan and another 15 MS/MS scans ranging from […]
LC-MS/MS Data Processing and Analysis […]

## CC1(C)OC2OC(C(O)COC3=CC(=O)c4cccc(O)c4C3=O)C(O)C2O1 (centres unmarked) [Compound 11]
RPB2_HUMAN P30876
  Fold change (treated / control): 0.4541
RS2_HUMAN P15880
  Fold change (treated / control): 0.6402
RS4X_HUMAN P62701
  Fold change (treated / control): 0.7316
RS6_HUMAN P62753
  Fold change (treated / control): 0.6108
RS8_HUMAN P62241
  Fold change (treated / control): 0.7705
RS9_HUMAN P46781
  Fold change (treated / control): 0.6218
RS14_HUMAN P62263
  Fold change (treated / control): 0.6832
RS25_HUMAN P62851
  Fold change (treated / control): 0.7448
RS26_HUMAN P62854
  Fold change (treated / control): 1.219
RSSA_HUMAN P08865
  Fold change (treated / control): 1.1957
RT07_HUMAN Q9Y2R9
  Fold change (treated / control): 0.6784
RT18A_HUMAN Q9NVS2
  Fold change (treated / control): 0.5156
RT18B_HUMAN Q9Y676
  Fold change (treated / control): 0.3594
RT23_HUMAN Q9Y3D9
  Fold change (treated / control): 0.4341
RT28_HUMAN Q9Y2Q9
  Fold change (treated / control): 0.6729
RT34_HUMAN P82930
  Fold change (treated / control): 0.3998
RUVB2_HUMAN Q9Y230
  Fold change (treated / control): 1.4609
RUXE_HUMAN P62304
  Fold change (treated / control): 1.231
S10AA_HUMAN P60903
  Fold change (treated / control): 1.922
S10AB_HUMAN P31949
  Fold change (treated / control): 2.04
S35B2_HUMAN Q8TB61
  Fold change (treated / control): 0.6783
SAAL1_HUMAN Q96ER3
  Fold change (treated / control): 1.66
SC11A_HUMAN P67812
  Fold change (treated / control): 1.161
SC22B_HUMAN O75396
  Fold change (treated / control): 1.1956
SCMC1_HUMAN Q6NUK1
  Fold change (treated / control): 2.011
SCNAA_HUMAN Q9Y5Y9
  Fold change (treated / control): 2.03
SDHB_HUMAN P21912
  Fold change (treated / control): 0.4112
SERA_HUMAN O43175
  Fold change (treated / control): 1.526
SERC1_HUMAN Q9NRX5
  Fold change (treated / control): 0.3307
SERC_HUMAN Q9Y617
  Fold change (treated / control): 1.605
SERPH_HUMAN P50454
  Fold change (treated / control): 1.3
SF3B1_HUMAN O75533
  Fold change (treated / control): 0.8384
SF3B3_HUMAN Q15393
  Fold change (treated / control): 1.136
SGT1_HUMAN Q9Y2Z0
  Fold change (treated / control): 1.144
SH3L3_HUMAN Q9H299
  Fold change (treated / control): 1.647
SIGIR_HUMAN Q6IA17
  Fold change (treated / control): 0.5907
SLD5_HUMAN Q9BRT9
  Fold change (treated / control): 0.7628
SMC1A_HUMAN Q14683
  Fold change (treated / control): 0.7088
SMCA5_HUMAN O60264
  Fold change (treated / control): 0.6602
SMD1_HUMAN P62314
  Fold change (treated / control): 0.7686
SMD3_HUMAN P62318
  Fold change (treated / control): 1.357
SMN_HUMAN Q16637
  Fold change (treated / control): 1.477
SMRC1_HUMAN Q92922
  Fold change (treated / control): 0.6541
SMRC2_HUMAN Q8TAQ2
  Fold change (treated / control): 0.751
SND1_HUMAN Q7KZF4
  Fold change (treated / control): 0.6826
SNF5_HUMAN Q12824
  Fold change (treated / control): 0.7197
SNX6_HUMAN Q9UNH7
  Fold change (treated / control): 1.781
SP16H_HUMAN Q9Y5B9
  Fold change (treated / control): 0.7259
SPB6_HUMAN P35237
  Fold change (treated / control): 1.403
SQSTM_HUMAN Q13501
  Fold change (treated / control): 3.787
SRPRB_HUMAN Q9Y5M8
  Fold change (treated / control): 1.285
SRS11_HUMAN Q05519
  Fold change (treated / control): 1.174
SRSF1_HUMAN Q07955
  Fold change (treated / control): 1.167
SRSF2_HUMAN Q01130
  Fold change (treated / control): 1.282
SRSF3_HUMAN P84103
  Fold change (treated / control): 1.2459
SRSF7_HUMAN Q16629
  Fold change (treated / control): 1.187
SRSF9_HUMAN Q13242
  Fold change (treated / control): 1.1541
SSA27_HUMAN O60232
  Fold change (treated / control): 1.222
SSBP_HUMAN Q04837
  Fold change (treated / control): 1.4708
STEA2_HUMAN Q8NFT2
  Fold change (treated / control): 0.3512
STRBP_HUMAN Q96SI9
  Fold change (treated / control): 0.6608
STXB2_HUMAN Q15833
  Fold change (treated / control): 1.385
SUCB2_HUMAN Q96I99
  Fold change (treated / control): 0.8543
SUMO2_HUMAN P61956
  Fold change (treated / control): 0.1159
SUOX_HUMAN P51687
  Fold change (treated / control): 0.6055
SYAC_HUMAN P49588
  Fold change (treated / control): 0.5085
SYAM_HUMAN Q5JTZ9
  Fold change (treated / control): 0.5065
SYDM_HUMAN Q6PI48
  Fold change (treated / control): 0.6768
SYF1_HUMAN Q9HCS7
  Fold change (treated / control): 0.4892
SYK_HUMAN Q15046
  Fold change (treated / control): 1.395
SYNC_HUMAN O43776
  Fold change (treated / control): 1.304
SYSC_HUMAN P49591
  Fold change (treated / control): 1.667
SYTM_HUMAN Q9BW92
  Fold change (treated / control): 0.4662
SYWC_HUMAN P23381
  Fold change (treated / control): 1.1947
T2FA_HUMAN P35269
  Fold change (treated / control): 1.489
TAGL2_HUMAN P37802
  Fold change (treated / control): 1.304
TB182_HUMAN Q9C0C2
  Fold change (treated / control): 1.469
TBA4A_HUMAN P68366
  Fold change (treated / control): 1.5598
TCPB_HUMAN P78371
  Fold change (treated / control): 1.22
TCPG_HUMAN P49368
  Fold change (treated / control): 1.0981
TCPQ_HUMAN P50990
  Fold change (treated / control): 1.157
TCTP_HUMAN P13693
  Fold change (treated / control): 1.49
TEBP_HUMAN Q15185
  Fold change (treated / control): 0.8374
TECR_HUMAN Q9NZ01
  Fold change (treated / control): 0.7078
TERA_HUMAN P55072
  Fold change (treated / control): 1.244
TES_HUMAN Q9UGI8
  Fold change (treated / control): 2.179
TF3C5_HUMAN Q9Y5Q8
  Fold change (treated / control): 0.6483
THIC_HUMAN Q9BWD1
  Fold change (treated / control): 1.469
THIL_HUMAN P24752
  Fold change (treated / control): 0.7393
THTR_HUMAN Q16762
  Fold change (treated / control): 0.4968
TIF1B_HUMAN Q13263
  Fold change (treated / control): 0.901
TIM8B_HUMAN Q9Y5J9
  Fold change (treated / control): 0.3123
TIM13_HUMAN Q9Y5L4
  Fold change (treated / control): 0.5414
TM109_HUMAN Q9BVC6
  Fold change (treated / control): 1.24
TM205_HUMAN Q6UW68
  Fold change (treated / control): 0.723
TMCO1_HUMAN Q9UM00
  Fold change (treated / control): 1.491
TMED1_HUMAN Q13445
  Fold change (treated / control): 1.494
TMM43_HUMAN Q9BTV4
  Fold change (treated / control): 2.013
TMOD3_HUMAN Q9NYL9
  Fold change (treated / control): 1.3151
TMX1_HUMAN Q9H3N1
  Fold change (treated / control): 0.7963
TOIP1_HUMAN Q5JTV8
  Fold change (treated / control): 1.681
